# Reference: patent US5968753A, “Positive and positive/negative cell selection mediated by peptide release” (Nexell Therapeutics, Inc., priority 1995, dated 1999)
# Where “and” joins values, the source holds several entries; their conditions need not be identical. Identical values can stand only once. Not every detail of the peptide structures is certain; ends, links or a residue may be inferred. Ends that are not written are not given here.
# Columns and labels:
# [1] = tested on: anti-glu-glu monclonal antibody; test: Competitive ELISA: displacement of anti-glu-glu antibody bound to SCA-EE; assay type: binding; details: SCA-EE coated
# [2] = tested on: CD34+ cell final products; test: Colony assays on CD34+ cell final products; assay type: cell-based, human; details: day 14, 2,000 cells plated per petri dish, 10 final products
# stem cell = test: Isolex 50 experiments, stem cell release; assay type: cell-based
# anti-CD34 antibody (9C5) [3] = test: Positive CD34+ selection with peptide release (Isolex 50); assay type: cell-based, mouse; details: individual donors
# anti-CD34 antibody (9C5) [4] = test: Positive/negative selection, simultaneous (anti-CD10, CD19, CD20 purge), peptide release; assay type: cell-based, mouse; details: individual donors
# [5] = tested on: positively selected CD34+ cells; test: Culture of positively selected CD34+ cells with cytokines for 12 days; assay type: cell-based, human; details: released cells of first experiment
# Experimental: The purity of the positively selected CD34+ cells was greater than 90% for both the chymopapain and peptide released cells. In a first experiment, the peptide release method yielded 14×10^6 cells, while the chymopapain release method yielded 20×10^6 cells. In a second experiment, the peptide release method yielded 19×10^6 cells, while the chymopapain release method yielded 22×10^6 cells. The positively selected CD34+ cells from the first experiment were grown in culture with cytokines for 12 days.
# 9069 antibody = test: Stem cell selection with 9069 antibody and sheep-anti-mouse beads, release by peptide or chymopapain; assay type: cell-based
# anti-CD34 antibody, 9069 = test: KG1a cell FACS assay: release by peptides of 9069 antibody bound to cells; assay type: cell-based, mouse
# Experimental: These experiments were performed following a similar procedure to the binding experiments except that the anti-CD34 antibody, 9069, was incubated with KG1a cells first, followed by addition of peptide. The experimental outline is schematically shown below:
# Anti-CD34 antibody, 9069 (0.1 microgram) was incubated with KG1a cells (10^6) for 30 minutes at room temperature (about 22° C.). Molar excesses of 10^5 to 10^6 times the amount of peptide to antibody were tested for the ability to displace the prebound antibody. Peptides were incubated with the antibody-cell complexes for 30 minutes at room temperature (approximately 22° C.). Remaining bound antibody was detected using the FITC-goat anti-mouse IgG reagent described in Example 3.
# Analysis of the variant peptide, 9069Q2, was done in parallel with the 9069N peptide. This analysis provides quality control information on reagents including the antibody, 9069, and the cells, KG1a. FACScan assays included a negative control of KG1a cells alone and positive control samples of KG1a cells with the 9069 antibody bound and detected with a secondary antibody, goat-anti-mouse IgG-FITC.
# anti-CD34 antibody (9C5) [6] = test: Positive/negative selection, sequential (anti-CD10, CD19, CD20 purge), peptide release; assay type: cell-based, mouse; details: individual donors
# CD34+ cells = test: CD34+ cell isolation from mobilized peripheral blood on automated cell separation apparatus; assay type: cell-based, human; details: 25 mg of peptide 9069N or chymopapain control
# Experimental: CD34+ cells were also isolated from human mobilized peripheral blood using the automated cell separation apparatus of co-pending U.S. patent application Ser. No. 08/212,479, and the method essentially as described in co-pending U.S. patent application Ser. No. 08/212,616. Both Ser. No. 08/212,479 and Ser. No. 08/212,616 are herein expressly incorporated by reference. Chymopapain was used as the control releasing agent, and 25 mg of the peptide 9069N (Table 11) was used as the test releasing agent.
# [7] = tested on: anti-CD34 monoclonal antibody, 9C5; test: CD34+ cell selection from G-CSF mobilized peripheral blood on Isolex 300SA, peptide release; assay type: cell-based, mouse; details: for CAPTURE (%) / CD34 POST % (purity) / YIELD (%): individual donors, 1.0 mg/mL, 30 min
# [8] = Table 9, bone marrow sample (3.66 % CD34), 2.5 mg peptide
# [9] = Table 10, mobilized peripheral blood (0.68 % CD34), NUTATOR, 0.5 mg/15 min
# [10] = Table 10, mobilized peripheral blood (0.68 % CD34), NUTATOR, 0.5 mg/30 min
# [11] = Table 10, mobilized peripheral blood (0.68 % CD34), NUTATOR, 1.0 mg/15 min
# [12] = Table 10, mobilized peripheral blood (0.68 % CD34), NUTATOR, 2.0 mg/15 min
# [13] = Table 10, mobilized peripheral blood (0.68 % CD34), ROTATOR, 0.5 mg/15 min
# [14] = Table 10, mobilized peripheral blood (0.68 % CD34), ROTATOR, 0.5 mg/30 min
# [15] = Table 10, mobilized peripheral blood (0.68 % CD34), ROTATOR, 1.0 mg/15 min
# [16] = Table 10, mobilized peripheral blood (0.68 % CD34), ROTATOR, 2.0 mg/15 min
# [17] = average of ten selection procedures
substance,measurement,setting,value
"AEEEEYMPMEG [glu-glu peptide, AEEEEYMPMEG]",displacement of bound anti-EE antibody,[1],could displace bound anti-EE antibody
"Ac-QQGWFPKD [9069N, Ac-QQGWFP-KD]","average number of colonies, BFU-E",[2],118±56
same,"average number of colonies, Clusters",[2],52±36
same,"average number of colonies, Mixed",[2],8±4
same,average total colonies formed,[2],386±202
same,specific stem cell release,stem cell,functioned well for specific stem cell release
same,% B-CELL CAPTURE,anti-CD34 antibody (9C5) [3],99.90% and 99.94% and 99.92%
same,% B-CELL FINAL PRODUCT,anti-CD34 antibody (9C5) [3],4.22% and 1.27% and 4.55%
same,% B-CELL NEGATIVE FRACTION,anti-CD34 antibody (9C5) [3],11.81% and 6.67% and 9.10%
same,B-CELL LOG DEPLETION,anti-CD34 antibody (9C5) [3],3.0 log and 3.25 log and 3.12 log
same,% CD34+ NEGATIVE FRACTION,anti-CD34 antibody (9C5) [3]; 9069N 1 mg/mL 30 minutes,0.5% and 0.07%
same,% CD34 FINAL PRODUCT,anti-CD34 antibody (9C5) [3]; 9069N 1 mg/mL 30 minutes,82.4% and 94.19% and 77.91%
same,% Capture,anti-CD34 antibody (9C5) [3]; 9069N 1 mg/mL 30 minutes,45.33% and 48.96% and 77.33%
same,% Yield,anti-CD34 antibody (9C5) [3]; 9069N 1 mg/mL 30 minutes,30.15% and 32.11% and 45.91%
same,% B-CELL CAPTURE,anti-CD34 antibody (9C5) [4],97.37% and 94.82% and 96.41%
same,% B-CELL FINAL PRODUCT,anti-CD34 antibody (9C5) [4],8.63% and 15.01% and 19.11%
same,% B-CELL NEGATIVE FRACTION,anti-CD34 antibody (9C5) [4],0.41% and 0.42%
same,% CD34+ NEGATIVE FRACTION,anti-CD34 antibody (9C5) [4],0.61% and 0.59% and 0.19%
same,% CD34 FINAL PRODUCT,anti-CD34 antibody (9C5) [4],61.68% and 77.42% and 46.27%
same,% Capture,anti-CD34 antibody (9C5) [4],40.74% and 42.79% and 43.23%
same,% Yield,anti-CD34 antibody (9C5) [4],26.45% and 30.79% and 26.44%
same,B-CELL LOG DEPLETION,anti-CD34 antibody (9C5) [4],2.61 log and 2.11 log and 2.51 log
same,expansion in cell number,[5],100 fold
same,% CD34 CELLS Negative Fraction,9069 antibody; [8],0.23%
same,% CD34 CELLS Positive Fraction,9069 antibody; [8],91.6%
same,% Capture,9069 antibody; [8],94.4%
same,% Yield,9069 antibody; [8],92.9%
same,% CD34 CELLS Negative Fraction,9069 antibody; [9],0.15%
same,% CD34 CELLS Positive Fraction,9069 antibody; [9],76.53%
same,% Capture,9069 antibody; [9],80.4%
same,% Yield,9069 antibody; [9],49.9%
same,% CD34 CELLS Negative Fraction,9069 antibody; [10],0.09%
same,% CD34 CELLS Positive Fraction,9069 antibody; [10],63.54%
same,% Capture,9069 antibody; [10],90.5%
same,% Yield,9069 antibody; [10],67.3%
same,% CD34 CELLS Negative Fraction,9069 antibody; [11],0.13%
same,% CD34 CELLS Positive Fraction,9069 antibody; [11],63.19%
same,% Capture,9069 antibody; [11],86.9%
same,% Yield,9069 antibody; [11],77.6%
same,% CD34 CELLS Negative Fraction,9069 antibody; [12],0.11%
same,% CD34 CELLS Positive Fraction,9069 antibody; [12],71.5%
same,% Capture,9069 antibody; [12],88.2%
same,% Yield,9069 antibody; [12],69.4%
same,% CD34 CELLS Negative Fraction,9069 antibody; [13],0.45%
same,% CD34 CELLS Positive Fraction,9069 antibody; [13],58.64%
same,% Capture,9069 antibody; [13],47.7%
same,% Yield,9069 antibody; [13],48.3%
same,% CD34 CELLS Negative Fraction,9069 antibody; [14],0.19%
same,% CD34 CELLS Positive Fraction,9069 antibody; [14],59.7%
same,% Capture,9069 antibody; [14],77.6%
same,% Yield,9069 antibody; [14],65%
same,% CD34 CELLS Negative Fraction,9069 antibody; [15],0.12%
same,% CD34 CELLS Positive Fraction,9069 antibody; [15],61.57%
same,% Capture,9069 antibody; [15],87.2%
same,% Yield,9069 antibody; [15],44.9%
same,% CD34 CELLS Negative Fraction,9069 antibody; [16],0.18%
same,% CD34 CELLS Positive Fraction,9069 antibody; [16],69%
same,% Capture,9069 antibody; [16],80.9%
same,% Yield,9069 antibody; [16],51.2%
same,effect of titrations of pH on release activity,"anti-CD34 antibody, 9069; 9069 antibody bound to KG1a cells",no effect on release activity
same,displacement of prebound 9069 antibody from KG1a cells,"anti-CD34 antibody, 9069; FACS",able to displace prebound 9069 antibody
same,Competition %,"anti-CD34 antibody, 9069; Table 11, 9069 prebound to KG1a cells",97%
same,release activity,"anti-CD34 antibody, 9069; Table 13, yes/no",yes
same,% B-CELL CAPTURE,anti-CD34 antibody (9C5) [6],98.29% and 93.59% and 86.0%
same,% B-CELL FINAL PRODUCT,anti-CD34 antibody (9C5) [6],0.1% and 0.11% and 0.91%
same,% B-CELL NEGATIVE FRACTION,anti-CD34 antibody (9C5) [6],11.41% and 6.60% and 8.85%
same,% CD34+ NEGATIVE FRACTION,anti-CD34 antibody (9C5) [6],0.41% and 0.47% and 0.16%
same,% CD34 FINAL PRODUCT,anti-CD34 antibody (9C5) [6],94.5% and 96.99% and 88.95%
same,% Capture,anti-CD34 antibody (9C5) [6],56.92% and 52.82% and 47.81%
same,% Yield,anti-CD34 antibody (9C5) [6],29.58% and 29.76% and 33.36%
same,B-CELL LOG DEPLETION,anti-CD34 antibody (9C5) [6],4.7 log and 4.4 log and 4.01 log
same,cells yielded by release method,CD34+ cells; first experiment,14×10^6 cells
same,purity of the positively selected CD34+ cells,CD34+ cells; mobilized peripheral blood,greater than 90%
same,cells yielded by release method,CD34+ cells; second experiment,19×10^6 cells
same,"CAPTURE (%), AVERAGE",[7]; [17],63.91±27.42% and 63.91%
same,"CD34 POST % (purity), AVERAGE",[7]; [17],85.70±10.04% and 85.70%
same,"YIELD (%), AVERAGE",[7]; [17],47.63±13.85% and 47.63%
same,% MNC in the positive fraction in the granulocyte gate,"[7]; average, FACScan",2.26±2.24%
same,% MNC in the positive fraction in the lymphocyte gate,"[7]; average, FACScan",92.44±4.56% and ~ 92%
same,% MNC in the positive fraction in the monocyte gate,"[7]; average, FACScan",5.13±3.40%
same,CAPTURE (%),[7]; liquid 9069N (Liq. Pep),0.00% and 77.64% and 47.62% and 65.21%
same,CD34 POST % (purity),[7]; liquid 9069N (Liq. Pep),89.58% and 79.56% and 89.83% and 91.11%
same,YIELD (%),[7]; liquid 9069N (Liq. Pep),51.71% and 24.99% and 31.17% and 47.33%
same,CAPTURE (%),[7]; lyophilized 9069N,66.62% and 70.24% and 87.63% and 90.19% and 88.26% and 45.71%
same,CD34 POST % (purity),[7]; lyophilized 9069N,68.41% and 85.40% and 96.08% and 91.76% and 69.48% and 95.78%
same,YIELD (%),[7]; lyophilized 9069N,56.39% and 66.32% and 65.70% and 50.84% and 47.04% and 34.83%
